Source: US12121507B2, “Water-soluble curcumin liquid and preparation method and application thereof” (HENAN ZHONGDA HENGYUAN BIOTECHNOLOGY STOCK CO., LTD., priority 2021, dated 2024)

Experiment: Solubility in water (dispersed in water, photo)
Assay type: physicochemical
Text: The curcumin content was 10.2%, and the D90 particle size was 278 nm. […] The curcumin content was 5.2%, and the D90 particle size was 262 nm. FIG. 2 is a photo of solubility of the curcumin raw material in water. It can be seen from FIG. 2 that curcumin is insoluble in water.

water solubility: insoluble
Structure (SMILES): COc1cc(/C=C/C(=O)CC(=O)/C=C/c2ccc(O)c(OC)c2)ccc1O [curcumin raw material, curcumin]
